PubChem BioAssay AID686943, Drosophila RNAi Screening Center | 2013

Purpose: 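Fly genes whose loss alters ERK activation after insulin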 (primary screen)
System: Drosophila S2R+ haemocyte-like cells expressing YFP-tagged ERK (Rolled)
Reagent: long dsRNA against Drosophila genes
Conditions: insulin stimulation versus unstimulated cells; dose and duration not given
Measured: 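Antibody staining for doubly phosphorylated ERK divided by ERK-YFP signal, as plate z-scores, in insulin-treated and untreated cells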
Scale: replicate 1, z-score of dpERK with insulin and replicate 2, z-score of dpERK with insulin: higher = more active ERK per ERK-YFP after insulin
In all, the deposit lists about 23,000 reagents; this is a random part of those that have a named target and a result. 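Extra replicates exist only for a retested subset of genes; insulin dose and duration not given; both raised and lowered dpERK matter.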 Further read-outs or replicates are left out here. Not stated in the record: the amount of reagent, the time to read-out.

nudC [DRSC11096] — replicate 1, z-score of dpERK with insulin = 0.5; replicate 2, z-score of dpERK with insulin = 0.41
nudC [DRSC11097] — replicate 1, z-score of dpERK with insulin = 0.93; replicate 2, z-score of dpERK with insulin = 1.86
Mfap1 [DRSC08154] — replicate 1, z-score of dpERK with insulin = 1.85; replicate 2, z-score of dpERK with insulin = 1.39
CG4617 [DRSC18377] — replicate 1, z-score of dpERK with insulin = -0.06; replicate 2, z-score of dpERK with insulin = -0.25
CG30375 [DRSC06834] — replicate 1, z-score of dpERK with insulin = 0; replicate 2, z-score of dpERK with insulin = -0.64
CNMaR [DRSC08992] — replicate 1, z-score of dpERK with insulin = 0.51; replicate 2, z-score of dpERK with insulin = 0.16
CNMaR [DRSC10224] — replicate 1, z-score of dpERK with insulin = -0.06; replicate 2, z-score of dpERK with insulin = 0.67
CG4338 [DRSC15564] — replicate 1, z-score of dpERK with insulin = 0.25; replicate 2, z-score of dpERK with insulin = 0.61
wkd [DRSC15777] — replicate 1, z-score of dpERK with insulin = 0.09; replicate 2, z-score of dpERK with insulin = 0.54
Samtor [DRSC04390] — replicate 1, z-score of dpERK with insulin = -0.86; replicate 2, z-score of dpERK with insulin = 0.03
chic [DRSC03507] — replicate 1, z-score of dpERK with insulin = -0.5; replicate 2, z-score of dpERK with insulin = -0.35
SCCRO3 [DRSC06359] — replicate 1, z-score of dpERK with insulin = 0.43; replicate 2, z-score of dpERK with insulin = -0.03
CG10481 [DRSC02063] — replicate 1, z-score of dpERK with insulin = 0.49; replicate 2, z-score of dpERK with insulin = 0.81
E(spl)m2-BFM [DRSC16991] — replicate 1, z-score of dpERK with insulin = -0.97; replicate 2, z-score of dpERK with insulin = -2.6
CG4949 [DRSC19926] — replicate 1, z-score of dpERK with insulin = 0.49; replicate 2, z-score of dpERK with insulin = -1.44
CG2291 [DRSC06836] — replicate 1, z-score of dpERK with insulin = -0.13; replicate 2, z-score of dpERK with insulin = 0.38
CG3198 [DRSC18292] — replicate 1, z-score of dpERK with insulin = -0.13; replicate 2, z-score of dpERK with insulin = 0
CG6429 [DRSC06986] — replicate 1, z-score of dpERK with insulin = 3.9; replicate 2, z-score of dpERK with insulin = 0.95
PRL-1 [DRSC03393] — replicate 1, z-score of dpERK with insulin = -0.11; replicate 2, z-score of dpERK with insulin = 0.58
CG32163 [DRSC09442] — replicate 1, z-score of dpERK with insulin = 0.62; replicate 2, z-score of dpERK with insulin = -0.71
CG32163 [DRSC21888] — replicate 1, z-score of dpERK with insulin = -0.2; replicate 2, z-score of dpERK with insulin = 0.16
CG30479 [DRSC06735] — replicate 1, z-score of dpERK with insulin = -0.67; replicate 2, z-score of dpERK with insulin = -0.8
Cmtr1 [DRSC18400] — replicate 1, z-score of dpERK with insulin = 0.3; replicate 2, z-score of dpERK with insulin = 1.1
CG10165 [DRSC02017] — replicate 1, z-score of dpERK with insulin = 0.02; replicate 2, z-score of dpERK with insulin = 0.08
EloB [DRSC16663] — replicate 1, z-score of dpERK with insulin = 0.32; replicate 2, z-score of dpERK with insulin = 1.15
CG32301 [DRSC08613] — replicate 1, z-score of dpERK with insulin = -0.93; replicate 2, z-score of dpERK with insulin = -0.84
Mitf [DRSC17212] — replicate 1, z-score of dpERK with insulin = 0.32; replicate 2, z-score of dpERK with insulin = 0.23
Mitf [DRSC21056] — replicate 1, z-score of dpERK with insulin = -0.96; replicate 2, z-score of dpERK with insulin = 0.19
CG10459 [DRSC05991] — replicate 1, z-score of dpERK with insulin = 1.3; replicate 2, z-score of dpERK with insulin = 0.39
CG10459 [DRSC22092] — replicate 1, z-score of dpERK with insulin = 0.11; replicate 2, z-score of dpERK with insulin = 0.97
ABCB7 [DRSC08603] — replicate 1, z-score of dpERK with insulin = -0.6; replicate 2, z-score of dpERK with insulin = 0.45
